Laboratory results from patent US6416753B1, “Method for modulating apoptosis” (The General Hospital Corporation, priority 1996, dated 2002).
No constants are given. Whether binding was seen depends on the method and setting. Some entries that bind do so weakly or less than the wild type.

Amino acid sequences for entries named in this document (tags omitted). Residues count along the entry.
UniProt P14778, residues 18-569: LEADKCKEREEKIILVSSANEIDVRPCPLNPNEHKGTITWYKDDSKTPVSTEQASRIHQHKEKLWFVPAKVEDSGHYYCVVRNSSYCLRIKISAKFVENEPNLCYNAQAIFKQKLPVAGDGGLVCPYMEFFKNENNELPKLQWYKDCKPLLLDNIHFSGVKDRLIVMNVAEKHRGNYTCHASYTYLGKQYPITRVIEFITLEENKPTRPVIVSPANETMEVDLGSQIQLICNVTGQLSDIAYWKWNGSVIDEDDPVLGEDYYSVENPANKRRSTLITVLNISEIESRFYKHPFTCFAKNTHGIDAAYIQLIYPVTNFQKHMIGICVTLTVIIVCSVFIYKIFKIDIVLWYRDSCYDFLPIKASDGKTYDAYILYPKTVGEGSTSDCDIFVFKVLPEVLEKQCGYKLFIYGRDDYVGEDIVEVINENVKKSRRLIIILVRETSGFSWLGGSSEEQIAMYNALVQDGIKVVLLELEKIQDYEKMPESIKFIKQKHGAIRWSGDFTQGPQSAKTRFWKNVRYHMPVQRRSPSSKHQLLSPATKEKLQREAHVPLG
UniProt P18510, residues 26-177: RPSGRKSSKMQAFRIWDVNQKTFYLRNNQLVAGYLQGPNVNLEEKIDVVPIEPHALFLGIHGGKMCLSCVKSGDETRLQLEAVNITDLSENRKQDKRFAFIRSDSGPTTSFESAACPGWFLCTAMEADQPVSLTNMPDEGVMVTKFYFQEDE

Target: IL-1 type-1 receptor on HeLa cells (UniProt P14778)
Test: competition with 125I IL-1β (100 ng/ml) on HeLa cells; γ-counting

human IL-1 receptor antagonist (IL-1Ra) (from UniProt P18510 26-177) (ligand)
binding: binds
